7 molecules from publication PMC8390522 can be followed below.

Chains of the proteins cited; added tags and fusions are not shown.
UniProt P26527: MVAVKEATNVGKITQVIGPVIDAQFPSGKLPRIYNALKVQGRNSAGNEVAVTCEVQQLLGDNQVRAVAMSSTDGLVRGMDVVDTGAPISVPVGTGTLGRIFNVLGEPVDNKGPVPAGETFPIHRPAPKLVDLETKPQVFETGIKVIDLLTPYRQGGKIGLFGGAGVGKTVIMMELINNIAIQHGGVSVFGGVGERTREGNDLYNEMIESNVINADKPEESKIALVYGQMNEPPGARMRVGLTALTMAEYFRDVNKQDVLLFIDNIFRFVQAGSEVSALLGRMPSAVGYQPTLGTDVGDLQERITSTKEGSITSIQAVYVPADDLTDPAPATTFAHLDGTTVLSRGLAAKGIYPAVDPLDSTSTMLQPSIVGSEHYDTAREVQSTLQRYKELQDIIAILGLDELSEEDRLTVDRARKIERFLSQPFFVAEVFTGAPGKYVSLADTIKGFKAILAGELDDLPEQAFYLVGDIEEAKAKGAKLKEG

These are yes or no findings as the source states them, for the method shown. Some binding calls cover weakened binding; strength is not graded here.

B1: b subunit of FoF1 ATP synthase of Synechocystis sp. PCC 6803 (protein, UniProt P27181 1-179)
chain: MLNTLFILAAEAHEAGEGGFGINLDFLEANLFNLAILLGIIIYYAPKTLGKILGDRRQKIADAIEEAETRQRKSAQILAEEEKKLAQAKAEAARIVQEAGQRAEVAKQEIATQTEADLRRMQEAAAQDLGAEQERVIAELKRRIAEQAVAKAEADLRDRLNEDTQDRLIERSIAQLGGR
B2: b' subunit of FoF1 ATP synthase of Synechocystis sp. PCC 6803 (protein, UniProt P27183 1-143)
chain: MFDFDATLPLMALQFVVLAFLLNAIFYKPMNKVLDERADYIRTNEEDARERLAKAKAITQEYEQQITDARRQSQAVIADAQAEARRLAAEKIAEAQRESQRQKETAAQEIEAQRQSALSSLEQEVAALSNQILHKLLGPELIK
B3: γ subunit of FoF1 ATP synthase of Synechocystis sp. PCC 6803, Δ205–220/E204G/K221G (protein, UniProt P17253)
chain: MPNLKAIRDRIQSVKNTKKITEAMRLVAAAKVRRAQEQVLSTRPFADALAQVLYNLQNRLSFAETELPLFEQREPKAVALLVVTGDRGLCGGYNVNAIKRAEQRAKELKNQGIAVKLVLVGSKAKQYFGRRDYDVAASYANLEQIPNASEAAQIADSLVALFVSETVDRVELIYTRFVSLISSQPVVQTLFPLSPQGLEAPDDGGVEAPVESFPQDMIFEQDPVQILEALLPLYNTNQLLRALQESAASELAARMTAMSNASDNAGQLIGTLTLSYNKARQAAITQELLEVVAGANSL
B4: γ subunit of FoF1 ATP synthase of Synechocystis sp. PCC 6803, Δ212–213/R211G/K214G (protein, UniProt P17253 1-314)
chain: MPNLKAIRDRIQSVKNTKKITEAMRLVAAAKVRRAQEQVLSTRPFADALAQVLYNLQNRLSFAETELPLFEQREPKAVALLVVTGDRGLCGGYNVNAIKRAEQRAKELKNQGIAVKLVLVGSKAKQYFGRRDYDVAASYANLEQIPNASEAAQIADSLVALFVSETVDRVELIYTRFVSLISSQPVVQTLFPLSPQGLEAPDDEIFRLITGGFQVEREKVEAPVESFPQDMIFEQDPVQILEALLPLYNTNQLLRALQESAASELAARMTAMSNASDNAGQLIGTLTLSYNKARQAAITQELLEVVAGANSL
B5: δ subunit of FoF1 ATP synthase of Synechocystis sp. PCC 6803 (protein, UniProt P27180 1-185)
chain: MKGSLYSSKIAEPYAQALIGLAQQQNLTEVFGDNLRSLLTLLQDSPDLSAVLSSPVVKDEDKKSVLRSVLGDGGNGYLLNFLMLLVDKRRIVFLEAICEQYLALLRQFTNTVLAEVTSALKLTDAQKDQVKERVKQLTGAQAVELETKVDGDILGGIVIKVGSQVFDSSLRGQLRRVGLSLGTAL
B6: γ subunit of FoF1 ATP synthase of Synechocystis sp. PCC 6803 (protein, UniProt P17253 1-314)
chain: MPNLKAIRDRIQSVKNTKKITEAMRLVAAAKVRRAQEQVLSTRPFADALAQVLYNLQNRLSFAETELPLFEQREPKAVALLVVTGDRGLCGGYNVNAIKRAEQRAKELKNQGIAVKLVLVGSKAKQYFGRRDYDVAASYANLEQIPNASEAAQIADSLVALFVSETVDRVELIYTRFVSLISSQPVVQTLFPLSPQGLEAPDDEIFRLITRGGKFQVEREKVEAPVESFPQDMIFEQDPVQILEALLPLYNTNQLLRALQESAASELAARMTAMSNASDNAGQLIGTLTLSYNKARQAAITQELLEVVAGANSL
B7: ε subunit of FoF1 ATP synthase of Synechocystis sp. PCC 6803 (protein, UniProt P26533 1-136)
chain: MTLTVRVITPDKVVWDEEVQELILPSTTGQLGILSNHAPLLTALEIGVMRVRPGKDWQNIAVMGGFAEVENNEVKVLVNGAELGTTIDAESARQAYTAAQGALEEANRGEDKPNQLKASNNYKKARARLQAAGGAV

The target in this experiment is β subunit of FoF1 ATP synthase of Synechocystis sp. PCC 6803 with an N-terminal His10-tag (Synechocystis sp. PCC 6803) (UniProt P26527). Description: co-purification by Ni-affinity chromatography; thylakoid membranes solubilised with 1% LMNG; FoF1 held by the His10-tag of the β subunit, 10 mM potassium phosphate pH 8.0, 100 mM K2SO4, 0.1 mM MgCl2, 0.1 mM ADP, 0.005% LMNG, 60 to 200 mM imidazole; bands of the SDS-PAGE gel identified by peptide mass fingerprinting, N-terminal sequencing or immunoblot.
As to B1, the binding entry is listed as “binds”.

Consider B2, for which the binding entry is on record as “binds”.

For the molecule B3, the binding entry is reported as “binds”.

Take B4: the binding entry is “binds”.

As to B5, the binding entry was “binds”.

On to B6, for which the binding entry was “binds”.

As for B7, the binding entry is given as “binds”.
